From paper PMC9418327
The exact form of at least one protein or probe is not confirmed. A weaker result is weaker than the reference pair of the same experiment. At least one verdict rests on a figure or table, not on a statement of the authors.

Chains of the proteins cited; added tags and fusions are not shown. Chains listed by the source or under a name are the forms on record and can include a tag or linker.
Dfd (Deformed) + Exd (Extradenticle) + Hth (Homothorax), one chain, as listed by the source, chain 1 of 3: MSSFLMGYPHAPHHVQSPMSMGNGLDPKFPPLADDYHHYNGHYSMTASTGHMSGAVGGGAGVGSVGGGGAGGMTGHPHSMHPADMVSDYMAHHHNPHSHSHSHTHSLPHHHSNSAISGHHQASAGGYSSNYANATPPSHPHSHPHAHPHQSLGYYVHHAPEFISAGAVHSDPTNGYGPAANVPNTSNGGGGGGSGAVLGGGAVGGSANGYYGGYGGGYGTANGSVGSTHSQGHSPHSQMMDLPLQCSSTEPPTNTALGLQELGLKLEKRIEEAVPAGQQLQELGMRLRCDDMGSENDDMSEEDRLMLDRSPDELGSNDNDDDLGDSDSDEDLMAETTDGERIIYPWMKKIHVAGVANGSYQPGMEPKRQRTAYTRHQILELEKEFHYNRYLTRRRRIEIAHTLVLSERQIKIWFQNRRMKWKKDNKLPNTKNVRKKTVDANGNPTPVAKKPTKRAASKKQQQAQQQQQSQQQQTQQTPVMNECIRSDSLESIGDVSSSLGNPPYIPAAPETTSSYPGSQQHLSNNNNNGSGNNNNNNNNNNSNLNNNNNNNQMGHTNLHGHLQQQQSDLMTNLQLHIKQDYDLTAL
Dfd (Deformed) + Exd (Extradenticle) + Hth (Homothorax), one chain, as listed by the source, chain 3 of 3: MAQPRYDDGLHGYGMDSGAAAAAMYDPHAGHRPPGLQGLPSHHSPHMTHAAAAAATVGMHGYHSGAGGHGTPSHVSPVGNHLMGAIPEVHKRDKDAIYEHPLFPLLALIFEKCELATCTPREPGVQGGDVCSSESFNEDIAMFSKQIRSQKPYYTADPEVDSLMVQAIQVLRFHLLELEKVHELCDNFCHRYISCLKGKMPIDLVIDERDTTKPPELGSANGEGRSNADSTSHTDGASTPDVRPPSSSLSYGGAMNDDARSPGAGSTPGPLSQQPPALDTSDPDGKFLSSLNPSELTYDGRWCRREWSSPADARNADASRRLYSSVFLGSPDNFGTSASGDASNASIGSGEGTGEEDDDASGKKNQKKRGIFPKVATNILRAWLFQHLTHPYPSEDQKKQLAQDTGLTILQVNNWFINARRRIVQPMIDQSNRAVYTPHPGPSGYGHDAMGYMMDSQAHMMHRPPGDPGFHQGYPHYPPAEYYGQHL
Dfd (Deformed) + Exd (Extradenticle) + Hth (Homothorax), one chain, as listed by the source, chain 2 of 3: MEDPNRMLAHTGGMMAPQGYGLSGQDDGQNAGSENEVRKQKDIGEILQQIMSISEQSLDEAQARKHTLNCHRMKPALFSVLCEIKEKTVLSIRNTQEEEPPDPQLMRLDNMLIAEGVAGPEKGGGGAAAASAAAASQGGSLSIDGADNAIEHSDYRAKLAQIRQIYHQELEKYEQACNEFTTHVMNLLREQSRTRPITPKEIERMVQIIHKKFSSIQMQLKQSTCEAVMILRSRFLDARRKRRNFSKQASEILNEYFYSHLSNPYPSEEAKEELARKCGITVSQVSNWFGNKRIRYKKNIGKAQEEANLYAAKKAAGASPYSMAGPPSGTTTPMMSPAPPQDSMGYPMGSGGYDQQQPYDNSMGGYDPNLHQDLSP

Tested on: Dfd (Deformed) + Exd (Extradenticle) + Hth (Homothorax)
Test: EMSA
Conditions: 20 mM HEPES pH 7.9, 1.4 mM MgCl2, 1 mM ZnSO4, 40 mM KCl, 0.1 mM EGTA, 5% glycerol, 10 mM DTT, 0.1% NP40, 200 ng poly(dI-dC), 3 ug BSA, recombinant protein, protein details: GST (pGEX-6P),His-myc,His-Flag, label: 5'-Cy5
[1] = sites act redundantly, 2 pmol Cy5 dsDNA in 30 ul
[2] = both sites required for full binding, 2 pmol Cy5 dsDNA in 30 ul

Sequence | binding result [1] | binding result [2] | also measured
AAAAATGAATTAGTGGAAATATAAATATATGATT (double strand) [oligo-C-wt (sites 5-8)] |  |  | binding result (less efficient than oligo A, 2 pmol Cy5 dsDNA in 30 ul): binds more weakly
GACCGCAGAACCAAACAAATTATTAAAAATGAAT (double strand) [oligo-B-wt (sites 2, 3/4)] |  |  | binding result (2 pmol Cy5 dsDNA in …): binds
GACCGCAGAACCAAACAAATTATTGCCAGTGAAT (double strand) [oligo-B-2-mt] | binds |  | 
GACCGCAGAACCAAGCCGCCTATTAAAAATGAAT (double strand) [oligo-B-1-mt] | binds |  | 
TATAAAAGCCATTAAATAGCCGCCTATTCTCGAT (double strand) [oligo-D-2-mt (site 10 mutated)] |  | binds more weakly | 
TATAAAAGGCGGCAAATACTAATCTATTCTCGAT (double strand) [oligo-D-1-mt (D-9mut-10wt)] |  | binds more weakly | 
